From article PMC9049301 come the findings set out here.

The chains behind the UniProt entries cited, without tags or fusion partners.
UniProt P35222: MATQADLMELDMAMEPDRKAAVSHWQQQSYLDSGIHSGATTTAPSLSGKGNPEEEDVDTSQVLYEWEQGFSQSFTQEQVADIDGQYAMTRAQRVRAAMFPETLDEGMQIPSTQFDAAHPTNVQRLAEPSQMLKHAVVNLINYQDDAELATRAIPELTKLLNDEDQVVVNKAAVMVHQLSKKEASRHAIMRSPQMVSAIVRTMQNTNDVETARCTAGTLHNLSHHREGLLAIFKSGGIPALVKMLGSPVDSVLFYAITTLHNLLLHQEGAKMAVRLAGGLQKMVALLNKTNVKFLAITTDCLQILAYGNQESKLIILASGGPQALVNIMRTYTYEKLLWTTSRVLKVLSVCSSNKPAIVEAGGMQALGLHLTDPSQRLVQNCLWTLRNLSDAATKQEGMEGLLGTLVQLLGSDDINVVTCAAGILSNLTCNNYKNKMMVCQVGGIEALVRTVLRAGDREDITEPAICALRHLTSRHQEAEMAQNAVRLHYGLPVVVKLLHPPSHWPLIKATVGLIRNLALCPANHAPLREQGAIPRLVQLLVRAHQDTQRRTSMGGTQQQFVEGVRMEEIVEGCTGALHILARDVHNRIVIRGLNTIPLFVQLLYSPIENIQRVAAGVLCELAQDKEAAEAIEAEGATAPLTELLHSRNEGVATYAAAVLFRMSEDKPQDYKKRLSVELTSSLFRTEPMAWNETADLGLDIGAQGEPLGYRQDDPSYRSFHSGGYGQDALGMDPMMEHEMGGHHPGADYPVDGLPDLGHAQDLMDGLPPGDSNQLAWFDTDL
UniProt Q9Y5Q3: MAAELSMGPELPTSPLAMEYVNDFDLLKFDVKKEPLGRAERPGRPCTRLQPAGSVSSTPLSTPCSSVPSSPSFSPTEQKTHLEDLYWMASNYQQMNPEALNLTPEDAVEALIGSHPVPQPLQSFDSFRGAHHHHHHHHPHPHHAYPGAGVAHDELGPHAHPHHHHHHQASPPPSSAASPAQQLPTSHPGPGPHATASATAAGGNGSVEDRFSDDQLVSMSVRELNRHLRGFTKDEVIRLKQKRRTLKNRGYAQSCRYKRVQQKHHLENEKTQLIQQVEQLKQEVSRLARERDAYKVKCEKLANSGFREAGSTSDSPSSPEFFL
UniProt Q9BQA1: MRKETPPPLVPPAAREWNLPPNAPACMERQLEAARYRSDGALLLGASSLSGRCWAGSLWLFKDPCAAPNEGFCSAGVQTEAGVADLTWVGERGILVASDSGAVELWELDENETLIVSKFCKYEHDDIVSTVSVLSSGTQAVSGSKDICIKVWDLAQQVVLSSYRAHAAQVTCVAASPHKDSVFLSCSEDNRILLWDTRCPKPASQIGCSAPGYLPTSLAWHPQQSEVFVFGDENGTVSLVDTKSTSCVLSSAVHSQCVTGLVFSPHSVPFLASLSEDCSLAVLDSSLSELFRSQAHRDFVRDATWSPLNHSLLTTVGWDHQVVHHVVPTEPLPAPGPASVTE

These are yes or no findings as the source states them, for the method shown. Binding seen in cells or lysates may run through a third protein. Some binding calls cover weakened binding; strength is not graded here.

The target in assay [1] is recombinant β-catenin (UniProt P35222). The assay is described as follows: co-IP; histidine-tagged recombinant proteins generated in E. coli (pET plasmids, BL21), analysed by co-IP.
Assay [2] deals with ß-catenin (human (endogenous in MCF-10A-ER-Src)) (UniProt P35222). The assay is described as follows: co-IP; endogenous proteins; chromatin fraction of transformed (tamoxifen) and non-transformed (ethanol) cells; antibodies against β-catenin, WDR77 and MafB; IgG as control.
Assay [3] deals with MafB (human (endogenous in MCF-10A-ER-Src)) (UniProt Q9Y5Q3). The assay is described as above.
Assay [4] addresses WDR77 (human (endogenous in MCF-10A-ER-Src)) (UniProt Q9BQA1). Described as above.

“recombinant MafB (from UniProt Q9Y5Q3 1-323)”: the binding entry in assay [1] is reported as “binds”. Consider WDR77 (from UniProt Q9BQA1 1-342), for which the binding entry in assay [2] and in assay [3] was “binds” each time.

“recombinant WDR77 (from UniProt Q9BQA1 1-342)”: the binding entry in assay [1] is listed as “binds”. On to ß-catenin (from UniProt P35222 1-781), for which the binding entry in assay [4] and in assay [3] was “binds” throughout.

MafB (from UniProt Q9Y5Q3 1-323): the binding entry in assay [4] and in assay [2] was “binds” in each case.
